# Out of some 330,000 compounds screened, about 610 (0.18%) were called active. The inconclusive results got no clear call from the source; some entries with a clear call stand among them for comparison. Calls come from the whole dose curve. Potencies of inconclusive entries are doubtful fits and often do not repeat.
# Test: qHTS of Yeast-based Assay for SARS-CoV PLP; note: nearly all actives have a fitted effect of over 55% in size; for activity, positive = growth rescue: 0% is about no effect
# Conditions: S. cerevisiae expressing SARS-CoV PLpro; Potency: growth rescue; activity, positive = growth rescue: at 32.9 µM (top of the series)
# Potency is the fitted concentration of half-maximal effect.
Structure (SMILES),Potency,"activity, positive = growth rescue"
CC(OC(=O)/C=C/c1cccs1)C(=O)NC1CCCCC1C (configuration not stated),"inconclusive: 22.4 µM [activator, single point]",
O=C(CCS(=O)(=O)c1ccc(F)cc1)N1CCN(c2ccccc2)CC1,,inactive: 8.8%
Cc1c(Cl)cccc1NC(=O)CCN1CCC(C(N)=O)CC1,,inactive: 1.18%
CN1C(=O)C(=Cc2ccccc2OCc2ccccc2Cl)C(=O)N(C)C1=O,"inconclusive: 4.47 µM [activator, single point]",
COc1cc(/C=C\C(=O)NCc2ccc3c(c2)cc(C)n3C)cc(OC)c1OC,,inactive: 0.593%
C/C(=N\NC(=S)Nc1cccc(C)c1)c1ccccc1,"inconclusive: 11.2 µM [activator, single point]",
COc1ccc(NS(=O)(=O)c2cccc(NC(=O)CCS(=O)(=O)c3ccccc3)c2)cc1,,inactive: 22.8%
CSCCC(NC(=O)C1CCCC1)c1nnc2ccccn12 (configuration not stated),"inconclusive: 11.2 µM [activator, single point]",
COc1cccc(/C=N/NC(=O)c2cc(-c3cccn3C)n[nH]2)c1O,active: 7.08 µM,
CCCCSc1nc(C)nc2c1c(=O)n(C)c(=O)n2C,"inconclusive: 3.16 µM [activator, single point]",
Cc1ccc(CNC(=O)CN(C)S(=O)(=O)c2cccc3nsnc23)cc1,"inconclusive: 3.16 µM [activator, partial curve]",
CN(C)c1ccc(/C=C(\NC(=O)c2ccccc2)C(=O)NCCN2CCOCC2)cc1,,inactive: -3.54%
Cc1cc(C)cc(C(=O)NCC(=O)NCCc2c[nH]c3ccccc23)c1,,inactive: 0.333%
CC(C)C(OC(=O)CCCC(=O)Nc1nccs1)C(=O)NC1CCCCC1 (configuration not stated),,inactive: 0.0774%
C/C(CC(=O)Nc1ccccn1)=N\NC(=O)c1ccc2ccccc2c1,,inactive: 2.9%
NCCCC[C@H]1CN=C(N)N1CCC12CC3CC(CC(C3)C1)C2,,inactive: -0.822%
CCCCOCCCNC(=O)COc1ccccc1,"inconclusive: 2.82 µM [activator, single point]",
C(=C\c1ccccc1)/CNn1cnnc1,"inconclusive: 17.8 µM [activator, single point]",
C/C(=N/NC(=O)c1ccc(NC(=O)c2ccc(F)cc2)cc1)c1ccccc1,"inconclusive: 0.355 µM [activator, full curve, poor fit]",
CCCCN(CCCC)S(=O)(=O)c1ccc(C(=O)Nc2nnc(COC)o2)cc1,"inconclusive: 14.1 µM [activator, single point]",
Cc1ccc(NC(=O)NC2CCCCCCC2)cc1C,,inactive: 1.36%
Cn1c(=O)c(=O)n(C)c2cc(S(=O)(=O)NCCOc3ccccc3Cl)ccc21,,inactive: 4.96%

# Single entries from the results shown.
# `COc1cccc(/C=N/NC(=O)c2cc(-c3cccn3C)n[nH]2)c1O` | Potency: active: 7.08 µM
# `C/C(CC(=O)Nc1ccccn1)=N\NC(=O)c1ccc2ccccc2c1` | activity, positive = growth rescue: inactive: 2.9%
